Data published in article PMC10123104.

Sequences of proteins named here, by UniProt entry; tags and fusion partners are left off. A change or cut given only in a name is not applied to a line headed by its entry.
UniProt P30177: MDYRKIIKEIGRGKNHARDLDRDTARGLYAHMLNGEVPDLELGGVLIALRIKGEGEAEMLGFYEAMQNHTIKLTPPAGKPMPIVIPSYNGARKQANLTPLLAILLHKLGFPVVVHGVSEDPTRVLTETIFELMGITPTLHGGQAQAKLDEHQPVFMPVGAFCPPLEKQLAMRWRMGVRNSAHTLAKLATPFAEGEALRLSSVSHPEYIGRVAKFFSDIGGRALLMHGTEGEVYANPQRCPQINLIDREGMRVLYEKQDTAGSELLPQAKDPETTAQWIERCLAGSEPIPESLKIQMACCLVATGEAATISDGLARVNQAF

Target: YbiB WT (Escherichia coli BW25113) (UniProt P30177)
Test: EMSA
Conditions: 2 uM YbiB pre-mixed with ObgE, nearly complete inhibition at 1:2 ObgE/YbiB; EMSA: 20 mM HEPES pH 7.5, 150 mM NaCl, 5 mM MgCl2, 2 mM DTT, 5% glycerol, 30 min at 37 C; 6% PAGE in 1x TBE at room temperature; recombinant protein; protein details: N-terminal His6, thrombin site (pET28a); label: 5'-32P; single-stranded DNA

**Q.** Does “GCTTTTGATGTACCAATGCATCACCATCACCATCAGGAAATGGGTAAGATGCTTGTAG [EMSA_probe (58-nt ssDNA)]” bind?
**A.** binds more weakly

Construct, isoform or probe ends are uncertain for at least one entry. Weaker means in comparison with the reference protein, sequence or condition of that experiment.
